In the supplement of paper PMC10849652:
The list shows a part of the results. Residues, ends and D or L forms follow the SMILES beside them. *: point of attachment. Cbz = O=C(OCc1ccccc1)*

Chains of the proteins cited; added tags and fusions are not shown. Lines headed by an entry give the natural chain unless they say otherwise; changes in a name come on top.
UniProt Q96DB9: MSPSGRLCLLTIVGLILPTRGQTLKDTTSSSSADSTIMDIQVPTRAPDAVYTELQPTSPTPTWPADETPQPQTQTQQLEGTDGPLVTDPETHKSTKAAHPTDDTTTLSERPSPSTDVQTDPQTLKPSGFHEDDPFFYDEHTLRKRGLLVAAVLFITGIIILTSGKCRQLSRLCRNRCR
UniProt O43716: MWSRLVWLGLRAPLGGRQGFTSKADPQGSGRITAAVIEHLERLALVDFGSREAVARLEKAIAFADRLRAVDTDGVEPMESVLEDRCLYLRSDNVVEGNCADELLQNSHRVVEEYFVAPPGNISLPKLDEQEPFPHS
UniProt Q8NCW6: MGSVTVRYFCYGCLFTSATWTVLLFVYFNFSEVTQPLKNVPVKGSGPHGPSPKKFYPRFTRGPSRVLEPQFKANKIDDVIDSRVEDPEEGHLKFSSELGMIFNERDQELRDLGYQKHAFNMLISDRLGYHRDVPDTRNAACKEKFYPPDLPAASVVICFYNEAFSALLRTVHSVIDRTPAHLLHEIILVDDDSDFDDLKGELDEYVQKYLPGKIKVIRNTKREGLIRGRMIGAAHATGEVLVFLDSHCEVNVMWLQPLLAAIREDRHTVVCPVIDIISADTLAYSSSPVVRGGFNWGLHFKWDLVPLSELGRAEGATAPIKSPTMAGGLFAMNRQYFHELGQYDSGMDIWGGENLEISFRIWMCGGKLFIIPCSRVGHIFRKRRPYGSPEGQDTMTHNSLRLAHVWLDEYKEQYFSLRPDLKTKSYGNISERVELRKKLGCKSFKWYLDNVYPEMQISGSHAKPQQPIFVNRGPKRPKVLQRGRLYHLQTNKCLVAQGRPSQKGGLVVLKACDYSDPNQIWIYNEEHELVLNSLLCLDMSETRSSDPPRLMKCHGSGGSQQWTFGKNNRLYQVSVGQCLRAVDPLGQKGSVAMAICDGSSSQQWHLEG
UniProt Q9UQC2, whole entry, looked up: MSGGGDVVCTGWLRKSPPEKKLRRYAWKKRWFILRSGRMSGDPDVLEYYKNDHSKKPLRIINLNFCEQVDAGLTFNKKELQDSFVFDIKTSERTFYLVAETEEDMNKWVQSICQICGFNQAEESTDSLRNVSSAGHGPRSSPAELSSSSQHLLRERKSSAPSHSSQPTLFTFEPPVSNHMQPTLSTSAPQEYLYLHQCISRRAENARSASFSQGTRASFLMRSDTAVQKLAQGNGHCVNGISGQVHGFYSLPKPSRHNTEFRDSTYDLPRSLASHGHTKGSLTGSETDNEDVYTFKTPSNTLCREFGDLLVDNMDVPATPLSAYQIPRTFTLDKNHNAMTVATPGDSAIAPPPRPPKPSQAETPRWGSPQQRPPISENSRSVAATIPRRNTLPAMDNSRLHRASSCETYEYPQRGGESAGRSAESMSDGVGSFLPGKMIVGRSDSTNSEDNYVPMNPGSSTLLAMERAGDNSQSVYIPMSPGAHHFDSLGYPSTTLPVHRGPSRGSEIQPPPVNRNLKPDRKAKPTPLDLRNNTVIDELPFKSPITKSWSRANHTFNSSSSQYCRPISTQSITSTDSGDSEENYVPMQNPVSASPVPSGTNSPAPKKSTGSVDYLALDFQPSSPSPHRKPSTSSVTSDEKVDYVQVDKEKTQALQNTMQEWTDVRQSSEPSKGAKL
UniProt Q9UM11, whole entry, looked up: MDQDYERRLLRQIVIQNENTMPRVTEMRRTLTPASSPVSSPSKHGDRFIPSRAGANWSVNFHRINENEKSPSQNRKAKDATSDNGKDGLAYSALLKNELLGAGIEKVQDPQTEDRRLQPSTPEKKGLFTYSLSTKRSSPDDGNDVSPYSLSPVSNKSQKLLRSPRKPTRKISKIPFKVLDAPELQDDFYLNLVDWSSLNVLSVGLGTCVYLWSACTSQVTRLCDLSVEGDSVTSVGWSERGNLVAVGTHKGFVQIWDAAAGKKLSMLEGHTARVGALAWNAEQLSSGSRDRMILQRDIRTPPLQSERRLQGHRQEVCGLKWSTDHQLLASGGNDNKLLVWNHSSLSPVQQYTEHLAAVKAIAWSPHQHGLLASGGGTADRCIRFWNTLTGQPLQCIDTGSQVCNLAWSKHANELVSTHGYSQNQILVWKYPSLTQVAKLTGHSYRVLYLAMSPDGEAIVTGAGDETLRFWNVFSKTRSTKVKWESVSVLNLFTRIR
UniProt P22466: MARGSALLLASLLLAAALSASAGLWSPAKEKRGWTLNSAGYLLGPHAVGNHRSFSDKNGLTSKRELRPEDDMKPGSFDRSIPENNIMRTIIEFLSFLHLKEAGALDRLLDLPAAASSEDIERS
UniProt P15407: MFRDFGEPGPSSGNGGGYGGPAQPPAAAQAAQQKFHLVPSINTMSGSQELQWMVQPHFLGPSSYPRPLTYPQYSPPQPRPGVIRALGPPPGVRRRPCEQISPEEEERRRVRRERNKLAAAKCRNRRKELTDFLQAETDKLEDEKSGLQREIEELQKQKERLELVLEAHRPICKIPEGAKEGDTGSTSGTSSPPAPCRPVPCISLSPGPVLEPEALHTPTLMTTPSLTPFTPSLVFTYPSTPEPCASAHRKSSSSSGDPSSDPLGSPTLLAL
UniProt O43524: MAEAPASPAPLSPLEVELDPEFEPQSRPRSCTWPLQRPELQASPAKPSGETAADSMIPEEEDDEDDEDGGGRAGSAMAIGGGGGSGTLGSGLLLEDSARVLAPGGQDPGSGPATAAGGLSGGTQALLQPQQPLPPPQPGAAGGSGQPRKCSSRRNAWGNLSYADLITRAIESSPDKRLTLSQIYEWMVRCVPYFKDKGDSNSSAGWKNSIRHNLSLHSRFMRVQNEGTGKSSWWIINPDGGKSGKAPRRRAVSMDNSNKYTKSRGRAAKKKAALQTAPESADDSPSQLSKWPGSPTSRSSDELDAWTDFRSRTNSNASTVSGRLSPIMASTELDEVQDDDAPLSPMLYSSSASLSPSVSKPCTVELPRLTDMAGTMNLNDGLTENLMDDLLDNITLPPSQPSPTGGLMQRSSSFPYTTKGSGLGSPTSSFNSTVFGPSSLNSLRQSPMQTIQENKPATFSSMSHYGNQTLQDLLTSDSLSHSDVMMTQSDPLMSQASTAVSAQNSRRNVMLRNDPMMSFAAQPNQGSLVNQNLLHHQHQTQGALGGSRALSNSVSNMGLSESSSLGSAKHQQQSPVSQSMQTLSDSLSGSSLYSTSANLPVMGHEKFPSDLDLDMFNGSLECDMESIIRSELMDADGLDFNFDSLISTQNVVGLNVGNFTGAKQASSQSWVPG
UniProt Q99988: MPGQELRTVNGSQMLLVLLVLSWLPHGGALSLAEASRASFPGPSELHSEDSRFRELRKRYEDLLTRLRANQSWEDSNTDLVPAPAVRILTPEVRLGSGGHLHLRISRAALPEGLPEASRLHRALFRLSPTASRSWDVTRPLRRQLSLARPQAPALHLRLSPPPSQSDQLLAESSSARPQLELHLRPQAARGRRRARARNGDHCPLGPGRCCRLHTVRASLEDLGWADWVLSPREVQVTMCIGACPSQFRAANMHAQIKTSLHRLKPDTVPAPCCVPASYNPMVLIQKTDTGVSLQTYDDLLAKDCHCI
UniProt P22083, whole entry, looked up: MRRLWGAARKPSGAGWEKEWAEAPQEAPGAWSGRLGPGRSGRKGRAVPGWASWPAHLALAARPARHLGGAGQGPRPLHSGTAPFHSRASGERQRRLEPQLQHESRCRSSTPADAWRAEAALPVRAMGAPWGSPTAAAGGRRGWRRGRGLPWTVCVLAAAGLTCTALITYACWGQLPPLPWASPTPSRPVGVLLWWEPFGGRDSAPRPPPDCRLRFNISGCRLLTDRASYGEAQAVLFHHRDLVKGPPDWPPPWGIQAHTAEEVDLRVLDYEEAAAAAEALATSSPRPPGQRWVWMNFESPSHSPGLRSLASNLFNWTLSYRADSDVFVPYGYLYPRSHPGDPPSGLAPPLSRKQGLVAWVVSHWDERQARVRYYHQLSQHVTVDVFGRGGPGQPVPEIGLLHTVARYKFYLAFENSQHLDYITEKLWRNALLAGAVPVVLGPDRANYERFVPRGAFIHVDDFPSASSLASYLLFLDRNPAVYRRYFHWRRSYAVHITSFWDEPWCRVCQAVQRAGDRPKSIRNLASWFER

Columns and labels:
Experiment in all cases: log2 fold change, soluble protein after heating vs DMSO (PISA); higher = thermal stabilisation; K562 cells, 10 uM, 30 min; active = over 0.2 and 3.5 SD of the protein, either way, in both replicates (recomputed)
IRAK-1-4 Inhibitor I = compound: C1COCCN1CCN2C3=CC=CC=C3N=C2NC(=O)C4=CC(=CC=C4)[N+](=O)[O-] [IRAK-1-4 Inhibitor I]
In short: (§1)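 K562 cells at 2×10^6 cells/mL were treated for 30 min with 10 μM compound, and aliquots were heated for 3 min over 48°C-58°C before pooling. Extraction used PBS with 0.5% NP-40 at 4°C, and soluble protein was the supernatant after 21,000xg for 90 min, measured by TMTpro 16plex LC-MS/MS with channel sums equalised. Thermal stability values, relative to control samples and from duplicates, are log2 fold changes.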

[1] = compound: CC(=O)c1cnc2ccc(-c3cc(Cl)c(O)c(Cl)c3)nc2c1N[C@H]1CC[C@H](CN(C)C)CC1
In short: as §1

ralimetinib = compound: CC(C)(C)Cn1c(N)nc2ccc(-c3[nH]c(C(C)(C)C)nc3-c3ccc(F)cc3)nc21 [ralimetinib]
In short: as §1

[2] = compound: CC(C)C[C@@H](C=O)NC(=O)[C@H](CC(C)C)NC(=O)[C@H](CC(C)C)NC(=O)OCc1ccccc1
In short: as §1

pinometostat = compound: CC(C)N(C[C@H]1O[C@@H](n2cnc3c(N)ncnc32)[C@H](O)[C@@H]1O)[C@H]1C[C@@H](CCc2nc3cc(C(C)(C)C)ccc3[nH]2)C1 [pinometostat]
In short: as §1

ibrutinib = compound: C=CC(=O)N1CCC[C@@H](n2nc(-c3ccc(Oc4ccccc4)cc3)c3c(N)ncnc32)C1 [ibrutinib]
In short: as §1

[3] = compound: CC(C)(O)CC(=O)NCCn1ccc2ncnc(Nc3ccc(Oc4cccc(C(F)(F)F)c4)c(Cl)c3)c21
In short: as §1

[4] = compound: CC1=C(C(CC(=O)N1)C2=CC=C(C=C2)C(F)(F)F)C(=O)NC3=C(C=C4C(=C3)C=NN4)F
In short: as §1

[5] = compound: CC1=C(C2=C(C=C1)C(=O)C3=CC=CC=C3N2CCCN)C
In short: as §1

[6] = compound: CC(C)C1=C2N=C(C=C(N2N=C1)NCC3=CC=CC=C3)NCCCCCCN
In short: as §1

Measured: log2 fold change

FXYD5 (UniProt Q96DB9)
inactive: IRAK-1-4 Inhibitor I -0.112 | [1] -0.219 | ralimetinib -0.055 | [2] 0.101 | pinometostat -0.121

GATC (UniProt O43716)
inactive: IRAK-1-4 Inhibitor I -0.043 | ibrutinib 0.047 | [1] -0.201 | ralimetinib -0.21 | [3] 0.031 | [2] 0.15 | pinometostat -0.131 | [4] -0.1 | [5] 0.221

GDI2 (UniProt Q5SX86)
inactive: IRAK-1-4 Inhibitor I 0.01 | ibrutinib 0.024 | ralimetinib -0.129 | [3] 0.036 | [6] 0.046 | [2] -0.103 | pinometostat -0.038

FNTB (UniProt P49356)
inactive: IRAK-1-4 Inhibitor I 0.017 | ibrutinib 0.309 | [1] -0.028 | ralimetinib -0.016 | [3] -0.025 | [6] 0.074 | [2] -0.033 | pinometostat -0.003 | [5] -0.087

GALNT11 (UniProt Q8NCW6)
inactive: IRAK-1-4 Inhibitor I -0.008 | ibrutinib -0.088 | [1] -0.022 | ralimetinib 0.065 | [3] 0.018 | [6] 0.015 | [2] 0.038 | pinometostat 0.045 | [5] 0.039

Reprinted at random: 2 entries already listed, in no set order.
FXYD5 (UniProt Q96DB9)
inactive: IRAK-1-4 Inhibitor I -0.112 | [1] -0.219 | ralimetinib -0.055 | [2] 0.101 | pinometostat -0.121

GDI2 (UniProt Q5SX86)
inactive: IRAK-1-4 Inhibitor I 0.01 | ibrutinib 0.024 | ralimetinib -0.129 | [3] 0.036 | [6] 0.046 | [2] -0.103 | pinometostat -0.038

Next part.

GAB2 (UniProt Q9UQC2)
inactive: IRAK-1-4 Inhibitor I -0.097 | [1] -0.573 | ralimetinib 0.059 | [3] -0.242 | [6] -0.616 | [2] 0.094 | pinometostat 0.081 | [5] 0.004

FZR1 (UniProt Q9UM11)
inactive: IRAK-1-4 Inhibitor I -0.078 | pinometostat 0.196

GAL (UniProt P22466)
inactive: IRAK-1-4 Inhibitor I 0.05 | ibrutinib 0.14 | ralimetinib 0 | [6] 0.16 | [2] 0.108 | pinometostat 0.037

FOSL1 (UniProt P15407)
inactive: IRAK-1-4 Inhibitor I 0.065 | ibrutinib 0.099 | [1] -0.096 | [3] -0.051 | [6] 0.05 | pinometostat 0 | [4] -0.025

FOXO3 (UniProt O43524)
inactive: IRAK-1-4 Inhibitor I -0.046 | [1] -0.427 | ralimetinib -0.083 | [3] 0.086 | [6] -0.091 | [2] 0.234 | pinometostat 0 | [5] 0.081

GALNT7 (UniProt H0YAH3)
inactive: IRAK-1-4 Inhibitor I 0.008 | ibrutinib 0.187 | [3] -0.029 | pinometostat -0.064

GDF15 (UniProt Q99988)
inactive: IRAK-1-4 Inhibitor I -0.103 | ibrutinib 0.005 | [1] -0.496 | ralimetinib 0.053 | [2] 0.141 | pinometostat 0.087 | [4] 0.084 | [5] 0.054

FUT4 (UniProt P22083)
inactive: IRAK-1-4 Inhibitor I -0.246 | pinometostat 0
